The values that follow come from PubChem BioAssay AID328 (DTP/NCI, 2004).

The list is a part of this screen's results and no random one: it covers a few groups of compounds. Not every dose and run of a compound is shown. T/C: endpoint of the treated group in % of that of the vehicle group. Some entries give survivors of the animals treated and no T/C: the source holds a T/C of zero for them, seemingly a mark for toxic or unscored doses. Some survivor counts are full or nearly so, which does not show that the dose was tolerated: survival well below the control is almost never listed, so the zero probably covers shortened survival too. Counts of survivors are from the toxicity check (mostly the fifth day) where no day follows; animals may have died later. Schedule codes are those of the source, taken here to give the interval after Q, in days (D) or hours (H), and the number of doses after X. Some doses were run more than once; their values stand side by side, smallest first. Where survival is the endpoint, the PubChem record calls one and a half times the control and up active, and a quarter to a half above the control has no call in these data; cut-offs in other NCI protocols can differ. Some T/C values are followed by the survivors on the day toxicity was checked, most often the fifth; without a count or a note in brackets, all were alive then.

This experiment concerns BDF1 mice, P388 leukemia ip, median survival T/C. Put plainly: NCI In Vivo Anticancer Drug Screen. Data for tumor model P388 Leukemia (intraperitoneal) in B6D2F1 (BDF1) mice. As to conditions: T/C endpoint: median survival time, higher T/C = longer survival. The essentials:
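Read-out is survival of treated animals expressed relative to the vehicle group, as a T/C ratio.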

Where [1] appears, read: dose: 4.0 mg/kg/injection, schedule: Q01DX009 (ip), vehicle: Klucel (hydroxypropylcellulose) (HPC).
The mark [2] stands for this setting: dose: 25.0 mg/kg/injection, schedule: Q04DX003 (ip), vehicle: Klucel (hydroxypropylcellulose) (HPC).
The mark [3] stands for this setting: dose: 100.0 mg/kg/injection, schedule: Q04DX003 (ip), vehicle: saline.

Consider `O=P(Nc1ccccn1)(N1CC1)N1CC1`, for which the T/C reads like this: (dose: 1.1 mg/kg/injection, schedule: Q01DX009 (ip), vehicle: Klucel (hydroxypropylcellulose) (HPC)) 109 % of control [5 of 6 alive]; (dose: 1.7 mg/kg/injection, schedule: Q01DX009 (ip), vehicle: Klucel (hydroxypropylcellulose) (HPC)) 122 % of control; (dose: 2.5 mg/kg/injection, schedule: Q01DX009 (ip), vehicle: Klucel (hydroxypropylcellulose) (HPC)) 136 % of control; (dose: 2.6 mg/kg/injection, schedule: Q01DX009 (ip), vehicle: Klucel (hydroxypropylcellulose) (HPC)) 135 % of control; (dose: 3.1 mg/kg/injection, schedule: Q04DX003 (ip), vehicle: Klucel (hydroxypropylcellulose) (HPC)) 145 % of control; under setting [1], 185 % of control. The T/C (dose: 4.7 mg/kg/injection, schedule: Q04DX003 (ip), vehicle: Klucel (hydroxypropylcellulose) (HPC)) was 154 % of control [5 of 6 alive]; the T/C (dose: 5.0 mg/kg/injection, schedule: Q01DX009 (ip), vehicle: Klucel (hydroxypropylcellulose) (HPC)) was 125 % of control; the T/C (dose: 6.1 mg/kg/injection, schedule: Q01DX009 (ip), vehicle: Klucel (hydroxypropylcellulose) (HPC)) is 220 % of control; the T/C (dose: 7.2 mg/kg/injection, schedule: Q04DX003 (ip), vehicle: Klucel (hydroxypropylcellulose) (HPC)) is 154 % of control; the T/C (dose: 9.37 mg/kg/injection, schedule: Q01DX009 (ip), vehicle: Klucel (hydroxypropylcellulose) (HPC)) was 204 and 272 % of control; the T/C (dose: 10.0 mg/kg/injection, schedule: Q01DX009 (ip), vehicle: Klucel (hydroxypropylcellulose) (HPC)) was 153 % of control [5 of 6 alive]. Besides, the T/C by setting is: (dose: 10.0 mg/kg/injection, schedule: Q04DX003 (ip), vehicle: Klucel (hydroxypropylcellulose) (HPC)) 168 % of control; (dose: 16.5 mg/kg/injection, schedule: Q04DX003 (ip), vehicle: Klucel (hydroxypropylcellulose) (HPC)) 200 and 268 % of control; under setting [2], 95 and 272 % of control; (dose: 25.0 mg/kg/injection, schedule: Q04DX003 (ip), vehicle: saline) 300 % of control; (dose: 37.5 mg/kg/injection, schedule: Q04DX003 (ip), vehicle: Klucel (hydroxypropylcellulose) (HPC)) 95 and 95 % of control [5 of 6 alive]. Besides, the survivor count (dose: 14.0 mg/kg/injection, schedule: Q01DX009 (ip), vehicle: Klucel (hydroxypropylcellulose) (HPC)) is listed as 5 of 6; the survivor count (dose: 18.75 mg/kg/injection, schedule: Q01DX009 (ip), vehicle: Klucel (hydroxypropylcellulose) (HPC)) is 6 of 6; the survivor count (dose: 37.5 mg/kg/injection, schedule: Q01DX009 (ip), vehicle: Klucel (hydroxypropylcellulose) (HPC)) is 4 of 6; the survivor count (dose: 50.0 mg/kg/injection, schedule: Q04DX003 (ip), vehicle: saline) is recorded as 5 of 6; the survivor count under setting [3] is on record as 1 of 6.
Turning to `NP1(=O)C=CN(Cc2ccccc2)C(=O)N1` (configuration not stated), the T/C runs as follows: under setting [3], 100 % of control; (dose: 200.0 mg/kg/injection, schedule: Q04DX003 (ip), vehicle: saline) 101 % of control; (dose: 400.0 mg/kg/injection, schedule: Q04DX003 (ip), vehicle: saline) 103 % of control.
For `N#C/C(=C\c1ccc(N(CCBr)CCBr)cc1)C(N)=O`, the T/C was 115 % of control (dose: 0.01 mg/kg/injection, schedule: Q01DX009 (ip), vehicle: Klucel (hydroxypropylcellulose) (HPC)); 140 % of control (dose: 0.03 mg/kg/injection, schedule: Q01DX009 (ip), vehicle: Klucel (hydroxypropylcellulose) (HPC)); 140 % of control (dose: 0.06 mg/kg/injection, schedule: Q01DX009 (ip), vehicle: Klucel (hydroxypropylcellulose) (HPC)); 130 % of control (dose: 0.12 mg/kg/injection, schedule: Q01DX009 (ip), vehicle: Klucel (hydroxypropylcellulose) (HPC)); 95 % of control (dose: 0.12 mg/kg/injection, schedule: Q01DX009 (ip), vehicle: saline with Tween-80); 159 % of control (dose: 0.25 mg/kg/injection, schedule: Q01DX009 (ip), vehicle: saline with Tween-80). In addition, the T/C reads like this: (dose: 0.5 mg/kg/injection, schedule: Q01DX009 (ip), vehicle: saline with Tween-80) 168 % of control; (dose: 0.75 mg/kg/injection, schedule: Q01DX009 (ip), vehicle: Klucel (hydroxypropylcellulose) (HPC)) 153 % of control; (dose: 0.9 mg/kg/injection, schedule: Q04DX003 (ip), vehicle: Klucel (hydroxypropylcellulose) (HPC)) 120 % of control; (dose: 1.0 mg/kg/injection, schedule: Q01DX009 (ip), vehicle: Klucel (hydroxypropylcellulose) (HPC)) 150 % of control; (dose: 1.0 mg/kg/injection, schedule: Q01DX009 (ip), vehicle: saline with Tween-80) 168 % of control; (dose: 1.3 mg/kg/injection, schedule: Q04DX003 (ip), vehicle: Klucel (hydroxypropylcellulose) (HPC)) 137 % of control. The T/C was 173 % of control (dose: 1.5 mg/kg/injection, schedule: Q01DX009 (ip), vehicle: Klucel (hydroxypropylcellulose) (HPC)); 110 % of control (dose: 2.0 mg/kg/injection, schedule: Q01DX009 (ip), vehicle: Klucel (hydroxypropylcellulose) (HPC)); 231 % of control (dose: 2.0 mg/kg/injection, schedule: Q01DX009 (ip), vehicle: saline with Tween-80); 150 and 172 % of control (dose: 2.0 mg/kg/injection, schedule: Q04DX003 (ip), vehicle: Klucel (hydroxypropylcellulose) (HPC)); 230 % of control (dose: 3.0 mg/kg/injection, schedule: Q01DX009 (ip), vehicle: Klucel (hydroxypropylcellulose) (HPC)); 177 % of control (dose: 3.0 mg/kg/injection, schedule: Q04DX003 (ip), vehicle: Klucel (hydroxypropylcellulose) (HPC)). Besides, the T/C runs as follows: (dose: 3.12 mg/kg/injection, schedule: Q01DX009 (ip), vehicle: Klucel (hydroxypropylcellulose) (HPC)) 210 % of control; under setting [1], 190 % of control [5 of 6 alive]; (dose: 4.5 mg/kg/injection, schedule: Q01DX009 (ip), vehicle: Klucel (hydroxypropylcellulose) (HPC)) 165 % of control; (dose: 5.0 mg/kg/injection, schedule: Q04DX003 (ip), vehicle: Klucel (hydroxypropylcellulose) (HPC)) 172 % of control; (dose: 6.25 mg/kg/injection, schedule: Q01DX009 (ip), vehicle: Klucel (hydroxypropylcellulose) (HPC)) 115 % of control; (dose: 8.0 mg/kg/injection, schedule: Q04DX003 (ip), vehicle: Klucel (hydroxypropylcellulose) (HPC)) 196 % of control. Further, the T/C is 230 % of control (dose: 12.0 mg/kg/injection, schedule: Q04DX003 (ip), vehicle: Klucel (hydroxypropylcellulose) (HPC)); 154 % of control (dose: 12.5 mg/kg/injection, schedule: Q04DX003 (ip), vehicle: Klucel (hydroxypropylcellulose) (HPC)); 161 % of control (dose: 18.0 mg/kg/injection, schedule: Q04DX003 (ip), vehicle: Klucel (hydroxypropylcellulose) (HPC)); 87 % of control under setting [2]. Also, the survivor count was 6 of 6 (dose: 4.0 mg/kg/injection, schedule: Q01DX009 (ip), vehicle: saline with Tween-80); 2 of 6 (dose: 8.0 mg/kg/injection, schedule: Q01DX009 (ip), vehicle: Klucel (hydroxypropylcellulose) (HPC)); 2 of 6 and 6 of 6 (dose: 12.5 mg/kg/injection, schedule: Q01DX009 (ip), vehicle: Klucel (hydroxypropylcellulose) (HPC)); 0 of 6 (dose: 25.0 mg/kg/injection, schedule: Q01DX009 (ip), vehicle: Klucel (hydroxypropylcellulose) (HPC)); 0 of 6 (dose: 50.0 mg/kg/injection, schedule: Q01DX009 (ip), vehicle: Klucel (hydroxypropylcellulose) (HPC)); 1 of 6 (dose: 50.0 mg/kg/injection, schedule: Q04DX003 (ip), vehicle: Klucel (hydroxypropylcellulose) (HPC)). In addition, the survivor count (dose: 100.0 mg/kg/injection, schedule: Q04DX003 (ip), vehicle: Klucel (hydroxypropylcellulose) (HPC)) is recorded as 0 of 6; the survivor count (dose: 200.0 mg/kg/injection, schedule: Q04DX003 (ip), vehicle: Klucel (hydroxypropylcellulose) (HPC)) is given as 0 of 6; the survivor count (dose: 400.0 mg/kg/injection, schedule: Q04DX003 (ip), vehicle: Klucel (hydroxypropylcellulose) (HPC)) is reported as 0 of 6.
